No constants are given. Whether binding was seen depends on the method and setting. Binding seen in cells or lysates may run through a third protein. For some assays here: Binding calls can cover weak binding; strength is not graded here.
What was measured:
[1] = molecular target: spHA-TM9SF2 CΔ3 (spHA-TM9SF2 without the three C-terminal amino acids); assay: co-IP; immunoprecipitation with anti-HA agarose beads of spHA-TM9SF2, spHA-TM9SF2 CΔ3 or GRINA TM4-6-HA; Gb3 synthase detected (Figure S6D)
GRINA TM4-6-HA = assay: as above

binding [1]: binds
binding (GRINA TM4-6-HA): no binding
B1: Gb3 synthase (α1,4 galactosyltransferase) (enzyme, UniProt Q9NPC4 1-353)
chain: MSKPPDLLLRLLRGAPRQRVCTLFIIGFKFTFFVSIMIYWHVVGEPKEKGQLYNLPAEIPCPTLTPPTPPSHGPTPGNIFFLETSDRTNPNFLFMCSVESAARTHPESHVLVLMKGLPGGNASLPRHLGISLLSCFPNVQMLPLDLRELFRDTPLADWYAAVQGRWEPYLLPVLSDASRIALMWKFGGIYLDTDFIVLKNLRNLTNVLGTQSRYVLNGAFLAFERRHEFMALCMRDFVDHYNGWIWGHQGPQLLTRVFKKWCSIRSLAESRACRGVTTLPPEAFYPIPWQDWKKYFEDINPEELPRLLSATYAVHVWNKKSQGTRFEATSRALLAQLHARYCPTTHEAMKMYL

From publication PMC6348303
